Experimental data: US20140128280A1
These are yes or no findings as the source states them, for the method shown. Some results given as binding are weak or reduced against the parent protein; the word gives no strength.

By UniProt entry, the sequences of proteins in these tests, tags left out. Residues count along the entry.
UniProt P02787, residues 20-698: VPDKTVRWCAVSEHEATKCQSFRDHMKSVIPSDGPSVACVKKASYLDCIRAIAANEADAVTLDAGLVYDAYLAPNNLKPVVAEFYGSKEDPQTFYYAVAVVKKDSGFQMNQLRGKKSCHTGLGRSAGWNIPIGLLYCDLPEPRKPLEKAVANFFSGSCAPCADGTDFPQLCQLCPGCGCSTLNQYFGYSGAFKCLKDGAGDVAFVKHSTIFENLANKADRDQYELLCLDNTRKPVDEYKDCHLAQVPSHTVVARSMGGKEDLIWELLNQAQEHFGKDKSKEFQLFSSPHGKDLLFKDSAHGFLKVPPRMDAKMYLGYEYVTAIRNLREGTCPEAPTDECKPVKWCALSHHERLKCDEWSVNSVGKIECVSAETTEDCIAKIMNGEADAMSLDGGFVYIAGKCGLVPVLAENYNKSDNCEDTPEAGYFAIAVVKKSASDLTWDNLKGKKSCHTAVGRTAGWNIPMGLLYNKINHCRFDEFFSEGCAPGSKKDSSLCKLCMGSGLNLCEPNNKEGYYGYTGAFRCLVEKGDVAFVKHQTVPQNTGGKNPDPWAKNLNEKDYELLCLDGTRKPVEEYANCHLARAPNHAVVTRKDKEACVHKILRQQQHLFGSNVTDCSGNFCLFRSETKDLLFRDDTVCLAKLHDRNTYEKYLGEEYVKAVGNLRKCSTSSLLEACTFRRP

Columns and labels:
transferrin (human) [1] = target: transferrin (human) (UniProt P02787); assay: peptide microarray, Alexa 555 transferrin with Alexa 647 E. coli lysate competitor
transferrin (human) [2] = target: transferrin (human) (UniProt P02787); assay: SPR (Biacore T100), steady state affinity model, transferrin immobilized

binding (transferrin (human) [1])	binding (transferrin (human) [2])	Binder
binds		QYHHFMNLKRQGRAQAYGSC [TRF21]
binds		FRGWAHIFFGPHVIYRGGSC [TRF23]
binds		KEDNPGYSSEQDYNKLDGSC [TRF19]
binds		APYAPQQIHYWSTLGFKGSC [TRF25]
	no binding (tested: 300 uM)	PTGWCPAPDPPRLHPLHGSC [TBPM003]
	no binding (tested: 300 uM)	ATRWCPSARPATPTTATGSC [TBPM021]
binds		AHKVVPQRQIRHAYNRYGSC [TRF26]
binds		SVKPWRPLITGNRWLNSGSC [TRF24]
